Measured values as given in publication PMC6073313, “Comparison of the Anion Inhibition Profiles of the α-CA Isoforms (SpiCA1, SpiCA2 and SpiCA3) from the Scleractinian Coral Stylophora pistillata” (International Journal of Molecular Sciences, 2018).

Target: T1, SpiCA3 (Stylophora pistillata, UniProt A0A1B0Y357)
T1 construct: gene CA3
T1 sequence (A0A1B0Y357 1-258): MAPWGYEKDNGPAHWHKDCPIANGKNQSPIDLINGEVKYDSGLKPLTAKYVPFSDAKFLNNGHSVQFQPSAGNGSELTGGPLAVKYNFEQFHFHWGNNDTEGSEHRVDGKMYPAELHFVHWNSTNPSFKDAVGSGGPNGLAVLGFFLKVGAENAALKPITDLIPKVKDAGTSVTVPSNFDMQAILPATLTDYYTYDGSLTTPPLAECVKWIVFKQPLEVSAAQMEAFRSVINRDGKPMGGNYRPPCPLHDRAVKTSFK
Assay: stopped-flow CO2 hydration, phenol red, Cheng-Prusoff
Assay type: biochemical

- Ki: 0.737 µM
SMILES: CC(=O)Nc1nnc(S(N)(=O)=O)s1 [AAZ, 5-acetamido-1,3,4-thiadiazole-2-sulfonamide]
